Data as given in PMC13558869.

How the values were obtained:
[1] = target: T1, UltraID_ZFP36L1 (UltraID fused to the N-terminus of ZFP36L1, co-expressed with GFP through P2A) (UniProt Q07352); experiment: proximity labelling; UltraID_L1 in retrovirally transduced primary human T cells, rested or re-activated 16 h with αCD3/αCD28, with or without 500 μM biotin; biotinylated proteins captured from lysate on streptavidin beads and identified by MS; controls UltraID_GFP and no biotin; T cell screens 1 and 2 (the network of Fig 3A also draws on the Jurkat screen)
T1 sequence: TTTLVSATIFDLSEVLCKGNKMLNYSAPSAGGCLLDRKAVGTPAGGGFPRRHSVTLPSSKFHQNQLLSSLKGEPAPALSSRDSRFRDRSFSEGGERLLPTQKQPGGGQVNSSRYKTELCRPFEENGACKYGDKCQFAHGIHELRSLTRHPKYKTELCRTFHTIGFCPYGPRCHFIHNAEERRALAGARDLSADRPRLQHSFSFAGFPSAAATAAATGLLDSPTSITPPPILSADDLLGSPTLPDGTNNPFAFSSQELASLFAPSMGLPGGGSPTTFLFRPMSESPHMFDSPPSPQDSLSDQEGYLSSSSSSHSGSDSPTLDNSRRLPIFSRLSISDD

[2] = target: T2, ZFP36L1 (human (endogenous in primary T cells)) (UniProt Q07352); experiment: affinity purification with mass spectrometry; Co-IP of endogenous ZFP36L1 with 10 μg anti-ZFP36L1 (1A3) or IgG control on Protein A Dynabeads, 4 h at 4°C, from cytoplasmic (1% digitonin) lysates of αCD3/αCD28-activated human CD3+ T cells at 0, 2, 5, 16 h; lysates untreated or treated with 200 U/ml RNAse A throughout; MS
T2 sequence: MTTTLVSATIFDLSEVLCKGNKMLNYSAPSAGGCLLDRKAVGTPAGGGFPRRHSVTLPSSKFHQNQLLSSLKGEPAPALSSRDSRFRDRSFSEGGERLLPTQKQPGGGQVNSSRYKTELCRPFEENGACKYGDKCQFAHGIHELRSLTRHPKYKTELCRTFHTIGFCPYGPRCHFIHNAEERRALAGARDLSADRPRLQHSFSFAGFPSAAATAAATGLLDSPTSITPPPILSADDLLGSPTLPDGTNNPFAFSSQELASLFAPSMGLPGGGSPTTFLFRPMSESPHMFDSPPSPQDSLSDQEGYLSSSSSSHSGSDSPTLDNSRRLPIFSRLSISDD

[3] = target: T1, UltraID_ZFP36L1 (UltraID fused to the N-terminus of ZFP36L1, co-expressed with GFP through P2A); experiment: proximity labelling; time course: UltraID_L1 T cells re-activated with αCD3/αCD28 for 0, 2, 5, 16 h; biotin added for 2 h, for 3 h (2-5 h) or for 9 h (5-16 h); streptavidin capture, MS; supervised classification into shapes

B1: ZNF598 (protein, UniProt Q86UK7 1-904)
chain: MAAAGGAEGRRAALEAAAAAAPERGGGSCVLCCGDLEATALGRCDHPVCYRCSTKMRVLCEQRYCAVCREELRQVVFGKKLPAFATIPIHQLQHEKKYDIYFADGKVYALYRQLLQHECPRCPELPPFSLFGDLEQHMRRQHELFCCRLCLQHLQIFTYERKWYSRKDLARHRMQGDPDDTSHRGHPLCKFCDERYLDNDELLKHLRRDHYFCHFCDSDGAQDYYSDYAYLREHFREKHFLCEEGRCSTEQFTHAFRTEIDLKAHRTACHSRSRAEARQNRHIDLQFSYAPRHSRRNEGVVGGEDYEEVDRYSRQGRVARAGTRGAQQSRRGSWRYKREEEDREVAAAVRASVAAQQQEEARRSEDQEEGGRPKKEEAAARGPEDPRGPRRSPRTQGEGPGPKETSTNGPVSQEAFSVTGPAAPGCVGVPGALPPPSPKLKDEDFPSLSASTSSSCSTAATPGPVGLALPYAIPARGRSAFQEEDFPALVSSVPKPGTAPTSLVSAWNSSSSSKKVAQPPLSAQATGSGQPTRKAGKGSRGGRKGGPPFTQEEEEDGGPALQELLSTRPTGSVSSTLGLASIQPSKVGKKKKVGSEKPGTTLPQPPPATCPPGALQAPEAPASRAEGPVAVVVNGHTEGPAPARSAPKEPPGLPRPLGSFPCPTPQEDFPALGGPCPPRMPPPPGFSAVVLLKGTPPPPPPGLVPPISKPPPGFSGLLPSPHPACVPSPATTTTTKAPRLLPAPRAYLVPENFRERNLQLIQSIRDFLQSDEARFSEFKSHSGEFRQGLISAAQYYKSCRDLLGENFQKVFNELLVLLPDTAKQQELLSAHTDFCNREKPLSTKSKKNKKSAWQATTQQAGLDCRVCPTCQQVLAHGDASSHQALHAARDDDFPSLQAIARIIT
B1 was tested, and the binding [1] was “binds” and the binding [2] was “binds”.

B2: CSTF2 (protein, UniProt P33240 1-577)
chain: MAGLTVRDPAVDRSLRSVFVGNIPYEATEEQLKDIFSEVGPVVSFRLVYDRETGKPKGYGFCEYQDQETALSAMRNLNGREFSGRALRVDNAASEKNKEELKSLGTGAPVIESPYGETISPEDAPESISKAVASLPPEQMFELMKQMKLCVQNSPQEARNMLLQNPQLAYALLQAQVVMRIVDPEIALKILHRQTNIPTLIAGNPQPVHGAGPGSGSNVSMNQQNPQAPQAQSLGGMHVNGAPPLMQASMQGGVPAPGQMPAAVTGPGPGSLAPGGGMQAQVGMPGSGPVSMERGQVPMQDPRAAMQRGSLPANVPTPRGLLGDAPNDPRGGTLLSVTGEVEPRGYLGPPHQGPPMHHVPGHESRGPPPHELRGGPLPEPRPLMAEPRGPMLDQRGPPLDGRGGRDPRGIDARGMEARAMEARGLDARGLEARAMEARAMEARAMEARAMEARAMEVRGMEARGMDTRGPVPGPRGPIPSGMQGPSPINMGAVVPQGSRQVPVMQGTGMQGASIQGGSQPGGFSPGQNQVTPQDHEKAALIMQVLQLTADQIAMLPPEQRQSILILKEQIQKSTGAP
With B2 the binding [3] was “binds” and the binding [1] was “binds”.

B3: FAM120A (protein, UniProt Q9NZB2 1-1118)
chain: MGVQGFQDYIEKHCPSAVVPVELQKLARGSLVGGGRQRPPQTPLRLLVDADNCLHRLYGGFYTDWVSGGQWNHMLGYLAALAKACFGGNIELFVFFNGALEKARLHEWVKRQGNERQTAQQIVSHVQNKGTPPPKVWFLPPVCMAHCIRLALIRFHVKVAQSIEDHHQEVIGFCRENGFHGLVAYDSDYALCNIPYYFSAHALKLSRNGKSLTTSQYLMHEVAKQLDLNPNRFPIFAALLGNHILPDEDLASFHWSLLGPEHPLASLKVRAHQLVLPPCDVVIKAVADYVRNIQDTSDLDAIAKDVFQHSQSRTDDKVIRFKRAIGYYSATSKPMSFHPPHYLAARPGPFGMPGMVPPHVPPQMLNIPQTSLQAKPVAPQVPSPGGAPGQGPYPYSLSEPAPLTLDTSGKNLTEQNSYSNIPHEGKHTPLYERSSPINPAQSGSPNHVDSAYFPGSSTSSSSDNDEGSGGATNHISGNKIGWEKTGSHSEPQARGDPGDQTKAEGSSTASSGSQLAEGKGSQMGTVQPIPCLLSMPTRNHMDITTPPLPPVAPEVLRVAEHRHKKGLMYPYIFHVLTKGEIKIAVSIEDEANKDLPPAALLYRPVRQYVYGVLFSLAESRKKTERLAFRKNRLPPEFSPVIIKEWAAYKGKSPQTPELVEALAFREWTCPNLKRLWLGKAVEDKNRRMRAFLACMRSDTPAMLNPANVPTHLMVLCCVLRYMVQWPGARILRRQELDAFLAQALSPKLYEPDQLQELKIENLDPRGIQLSALFMSGVDMALFANDACGQPIPWEHCCPWMYFDGKLFQSKLLKASREKTPLIDLCDGQADQAAKVEKMRQSVLEGLSFSRQSHTLPFPPPPALPFYPASAYPRHFGPVPPSQGRGRGFAGVCGFGGPYGETVATGPYRAFRVAAASGHCGAFSGSDSSRTSKSQGGVQPIPSQGGKLEIAGTVVGHWAGSRRGRGGRGPFPLQVVSVGGPARGRPRGVISTPVIRTFGRGGRYYGRGYKNQAAIQGRPPYAASAEEVAKELKSKSGESKSSAMSSDGSLAENGVMAEEKPAPQMNGSTGDARAPSHSESALNNDSKTCNTNPHLNALSTDSACRREAALEAAVLNKEE
B3 was tested, and the binding [1] was “binds” and the binding [2] was “binds”.

B4: MOV10 (protein, UniProt Q9HCE1 1-1003)
chain: MPSKFSCRQLREAGQCFESFLVVRGLDMETDRERLRTIYNRDFKISFGTPAPGFSSMLYGMKIANLAYVTKTRVRFFRLDRWADVRFPEKRRMKLGSDISKHHKSLLAKIFYDRAEYLHGKHGVDVEVQGPHEARDGQLLIRLDLNRKEVLTLRLRNGGTQSVTLTHLFPLCRTPQFAFYNEDQELPCPLGPGECYELHVHCKTSFVGYFPATVLWELLGPGESGSEGAGTFYIARFLAAVAHSPLAAQLKPMTPFKRTRITGNPVVTNRIEEGERPDRAKGYDLELSMALGTYYPPPRLRQLLPMLLQGTSIFTAPKEIAEIKAQLETALKWRNYEVKLRLLLHLEELQMEHDIRHYDLESVPMTWDPVDQNPRLLTLEVPGVTESRPSVLRGDHLFALLSSETHQEDPITYKGFVHKVELDRVKLSFSMSLLSRFVDGLTFKVNFTFNRQPLRVQHRALELTGRWLLWPMLFPVAPRDVPLLPSDVKLKLYDRSLESNPEQLQAMRHIVTGTTRPAPYIIFGPPGTGKTVTLVEAIKQVVKHLPKAHILACAPSNSGADLLCQRLRVHLPSSIYRLLAPSRDIRMVPEDIKPCCNWDAKKGEYVFPAKKKLQEYRVLITTLITAGRLVSAQFPIDHFTHIFIDEAGHCMEPESLVAIAGLMEVKETGDPGGQLVLAGDPRQLGPVLRSPLTQKHGLGYSLLERLLTYNSLYKKGPDGYDPQFITKLLRNYRSHPTILDIPNQLYYEGELQACADVVDRERFCRWAGLPRQGFPIIFHGVMGKDEREGNSPSFFNPEEAATVTSYLKLLLAPSSKKGKARLSPRSVGVISPYRKQVEKIRYCITKLDRELRGLDDIKDLKVGSVEEFQGQERSVILISTVRSSQSFVQLDLDFNLGFLKNPKRFNVAVTRAKALLIIVGNPLLLGHDPDWKVFLEFCKENGGYTGCPFPAKLDLQQGQNLLQGLSKLSPSTSGPHSHDYLPQEREGEGGLSLQVEPEWRNEL
In the case of B4, the binding [1] is reported as “binds” and the binding [2] is reported as “binds”.

B5: PATL1 (protein, UniProt Q86TB9 1-770)
chain: MFRYESLEDCPLDEDEDAFQGLGEEDEEIDQFNDDTFGSGAVDDDWQEAHERLAELEEKLPVAVNEQTGNGERDEMDLLGDHEENLAERLSKMVIENELEDPAIMRAVQTRPVLQPQPGSLNSSIWDGSEVLRRIRGPLLAQEMPTVSVLEYALPQRPPQGPEDDRDLSERALPRRSTSPIIGSPPVRAVPIGTPPKQMAVPSFTQQILCPKPVHVRPPMPPRYPAPYGERMSPNQLCSVPNSSLLGHPFPPSVPPVLSPLQRAQLLGGAQLQPGRMSPSQFARVPGFVGSPLAAMNPKLLQGRVGQMLPPAPGFRAFFSAPPSATPPPQQHPPGPGPHLQNLRSQAPMFRPDTTHLHPQHRRLLHQRQQQNRSQHRNLNGAGDRGSHRSSHQDHLRKDPYANLMLQREKDWVSKIQMMQLQSTDPYLDDFYYQNYFEKLEKLSAAEEIQGDGPKKERTKLITPQVAKLEHAYKPVQFEGSLGKLTVSSVNNPRKMIDAVVTSRSEDDETKEKQVRDKRRKTLVIIEKTYSLLLDVEDYERRYLLSLEEERPALMDDRKHKICSMYDNLRGKLPGQERPSDDHFVQIMCIRKGKRMVARILPFLSTEQAADILMTTARNLPFLIKKDAQDEVLPCLLSPFSLLLYHLPSVSITSLLRQLMNLPQSAATPALSNPHLTAVLQNKFGLSLLLILLSRGEDLQSSDPATESTQNNQWTEVMFMATRELLRIPQAALAKPISIPTNLVSLFSRYVDRQKLNLLETKLQLVQGIR
With B5 the binding [3] was “binds” and the binding [1] was “binds”.

Results are given in words; binding and its absence hold for the method and conditions named. Binding seen in cells or lysates may run through a third protein. Here binding means that the protein was enriched with, or labelled near, the bait; the list need not be complete. For some of these results: Where a sequence is shown, tags or fusion partners need not be part of it.
